From US20250059275A1
These are yes or no findings as the source states them, for the method shown. Some entries that bind do so weakly or less than the wild type. Each block holds one binder with its values, some of them ahead of it.

Sequences of proteins named here, by UniProt entry; tags and fusion partners are left off. Residues count along the entry.
UniProt Q495A1, residues 22-141: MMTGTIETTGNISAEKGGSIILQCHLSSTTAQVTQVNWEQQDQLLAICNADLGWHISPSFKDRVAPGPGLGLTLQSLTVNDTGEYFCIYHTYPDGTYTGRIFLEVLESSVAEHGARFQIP

Tests used:
[1] = target: human TIGIT-HIS (Biointron, BI120) (human) (UniProt Q495A1); assay: Octet BLI, TIGIT-HIS loaded on NTA sensor, antibody dilution series in solution
[2] = target: cynomolgus monkey TIGIT expressed on CHO-K1 cells (CHO-mkTIGIT) (cynomolgus monkey); assay: flow cytometry on CHO-mkTIGIT cells, anti-human IgG secondary antibody
[3] = target: human TIGIT-HIS (Biointron, BI120) (human) (UniProt Q495A1); assay: Octet BLI on TIGIT-HIS loaded sensor
[4] = target: human TIGIT-HIS (Biointron, BI120) (human) (UniProt Q495A1); assay: Octet BLI tandem epitope competition, TIGIT-HIS loaded on the sensor, first antibody step

binding [1]: binds | binding [2]: binds
B1: JHH4A057 (antibody, V domains shown)
VH: QVQLVQSGSELKKPGASVKVSCKASGYTLTSHALNWVRQAPGQGLEWMGWINTNTGNPTYVQGFTGRFVFSLDTSVSTAYLQISSLKAEDTAVYYCARGYSSPPRMDVWGQGTTVTVSS
VL: EIVLTQSPGTLFLSPGERATLSCRASQSVSRNYLVWYQQKPGQAPRLLIYGASTRATGIPDRFSGSGSGTDFTLTIRRLEPEDFALYYCQQYGSSPFTFGQGTKLEIN

binding [1]: binds | binding [3]: binds | binding [4]: binds | binding [2]: binds
B2: JHH4A063 (antibody, V domains shown)
VH: EVQLVESGGGLVQPGRSLRLSCTASGFNFDDYGMHWVRQAPGKGLEWVSGISWNSISIGSADSVKGRFTISRDNAKNSLYLQMNSLRPEDTALYYCAKDGGDHYYYGMDVWGQGTTVTVSS
VL: DIMMTQSPLSLPVTPGEPASISCRSSQSLLHSNGYKYLNWYLQKPGQSPLLLIYLGSNRASGVPDRFSGSGSGTDFTLKISRVEAEDVGVYYCMQALQTPLTFGGGTKVEIK
